According to PMC11381343:
Results are given in words; binding and its absence hold for the method and conditions named. Binding seen in cells or lysates may run through a third protein. Some binding calls cover weakened binding; strength is not graded here.

Chains of the proteins cited; added tags and fusions are not shown. Lines headed by an entry give the natural chain unless they say otherwise; changes in a name come on top.
UniProt P54132: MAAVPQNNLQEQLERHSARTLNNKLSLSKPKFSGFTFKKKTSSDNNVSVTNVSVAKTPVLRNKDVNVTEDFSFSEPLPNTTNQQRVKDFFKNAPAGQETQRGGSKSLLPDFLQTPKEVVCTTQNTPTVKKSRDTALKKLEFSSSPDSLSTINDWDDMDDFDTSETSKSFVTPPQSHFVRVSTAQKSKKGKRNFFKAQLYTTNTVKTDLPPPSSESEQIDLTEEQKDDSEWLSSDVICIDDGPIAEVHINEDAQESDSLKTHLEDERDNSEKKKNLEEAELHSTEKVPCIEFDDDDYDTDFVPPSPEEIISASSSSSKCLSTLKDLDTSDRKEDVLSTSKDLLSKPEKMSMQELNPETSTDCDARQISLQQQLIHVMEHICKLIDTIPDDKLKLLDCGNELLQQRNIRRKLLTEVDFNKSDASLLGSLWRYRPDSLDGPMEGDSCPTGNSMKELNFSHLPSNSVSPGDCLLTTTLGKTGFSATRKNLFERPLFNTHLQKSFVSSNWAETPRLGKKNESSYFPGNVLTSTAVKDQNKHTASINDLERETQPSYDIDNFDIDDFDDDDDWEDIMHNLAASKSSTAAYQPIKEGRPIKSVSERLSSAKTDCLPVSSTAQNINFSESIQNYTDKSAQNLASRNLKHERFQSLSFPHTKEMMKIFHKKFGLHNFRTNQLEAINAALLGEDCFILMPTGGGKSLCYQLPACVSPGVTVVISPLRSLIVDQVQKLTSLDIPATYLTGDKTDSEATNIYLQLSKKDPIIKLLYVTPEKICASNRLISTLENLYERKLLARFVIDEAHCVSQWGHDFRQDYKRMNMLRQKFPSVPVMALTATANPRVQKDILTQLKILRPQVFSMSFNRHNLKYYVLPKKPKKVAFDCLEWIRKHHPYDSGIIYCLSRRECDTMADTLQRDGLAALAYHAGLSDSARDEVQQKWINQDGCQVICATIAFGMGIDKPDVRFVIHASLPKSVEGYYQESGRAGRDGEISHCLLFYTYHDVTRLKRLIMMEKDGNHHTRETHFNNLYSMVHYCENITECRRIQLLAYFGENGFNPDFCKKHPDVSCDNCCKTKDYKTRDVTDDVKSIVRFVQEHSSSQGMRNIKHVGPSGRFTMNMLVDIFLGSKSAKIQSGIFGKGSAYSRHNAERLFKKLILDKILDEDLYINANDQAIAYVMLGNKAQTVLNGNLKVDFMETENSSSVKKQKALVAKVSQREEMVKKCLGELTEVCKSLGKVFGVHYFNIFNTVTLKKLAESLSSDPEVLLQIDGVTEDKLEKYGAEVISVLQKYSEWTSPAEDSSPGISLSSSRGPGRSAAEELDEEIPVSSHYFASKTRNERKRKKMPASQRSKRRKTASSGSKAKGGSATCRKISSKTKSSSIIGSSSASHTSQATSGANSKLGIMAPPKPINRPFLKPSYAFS
UniProt P54274: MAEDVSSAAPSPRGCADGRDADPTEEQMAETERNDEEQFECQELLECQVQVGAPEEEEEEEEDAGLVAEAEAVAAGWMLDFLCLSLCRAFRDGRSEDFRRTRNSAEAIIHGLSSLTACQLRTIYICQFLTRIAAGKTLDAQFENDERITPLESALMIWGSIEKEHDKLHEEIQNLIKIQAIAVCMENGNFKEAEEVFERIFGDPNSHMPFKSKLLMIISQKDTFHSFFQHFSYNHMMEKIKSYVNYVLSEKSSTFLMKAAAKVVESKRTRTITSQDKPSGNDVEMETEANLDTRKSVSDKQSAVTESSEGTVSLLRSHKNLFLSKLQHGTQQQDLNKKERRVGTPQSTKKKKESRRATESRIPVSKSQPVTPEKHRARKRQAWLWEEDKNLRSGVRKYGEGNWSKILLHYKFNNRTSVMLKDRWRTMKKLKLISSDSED

What was measured:
Test in all cases: co-IP; BLM mutants co-precipitating TRF1 (Supplementary Figure S4B); format not told
[1] = target: Flag-tagged BLM P690L, expressed in U2OS cells (human) (UniProt P54132)
[2] = target: Flag-tagged BLM 3A (F686A, L688A, P690A), expressed in U2OS cells (human) (UniProt P54132)
[3] = target: Flag-tagged BLM, wild type, expressed in U2OS cells (human) (UniProt P54132)

binding [1]: binds
binding [2]: binds
binding [3]: binds
Substance: TRF1 (from UniProt P54274 1-439)
